The source of these data is PMC5345129.

Results are given in words; binding and its absence hold for the method and conditions named. In cells and extracts the contact can be indirect. Some results given as binding are weak or reduced against the parent protein; the word gives no strength. Tags and fused reporters may be left off the sequences shown.

Experiment in all cases: pull-down; GST fusion proteins bound to Glutathione Sepharose 4B; Gα variants from high-speed supernatants of transfected HEK293 cells, detergent diluted to 0.05% polyoxyethylene-10-lauryl ether; 50 mM HEPES pH 7.5, 1 mM EDTA, 3 mM dithiothreitol, 10 mM MgSO4; 2 h at 4°C; three washes; immunoblot (anti-Gα12, anti-myc or anti-EGFP); 5% of the extract kept as load; only the target purified

In test [1] the target is T1, GST-fusion of amino acids 2-252 of p115RhoGEF containing its RH domain (UniProt Q92888).
T1 sequence: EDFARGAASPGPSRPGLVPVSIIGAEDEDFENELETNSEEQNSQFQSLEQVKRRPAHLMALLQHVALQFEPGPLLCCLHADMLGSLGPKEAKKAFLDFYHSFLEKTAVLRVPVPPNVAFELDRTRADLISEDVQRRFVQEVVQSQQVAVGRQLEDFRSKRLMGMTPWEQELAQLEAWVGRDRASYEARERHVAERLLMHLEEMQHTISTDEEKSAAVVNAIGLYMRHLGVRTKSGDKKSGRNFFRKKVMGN

In test [2] the target is T2, GST-fusion of the 106-amino acid domain of AKAP-Lbc (amino acids 2567-2672) (human) (UniProt Q12802).
T2 sequence: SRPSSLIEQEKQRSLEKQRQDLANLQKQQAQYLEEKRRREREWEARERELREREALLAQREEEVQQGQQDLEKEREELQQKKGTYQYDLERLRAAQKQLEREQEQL

The target in test [3] is T3, GST-fusion of the 106-amino acid domain of p114RhoGEF (amino acids 686-791) (human) (UniProt Q6ZSZ5).
T3 sequence: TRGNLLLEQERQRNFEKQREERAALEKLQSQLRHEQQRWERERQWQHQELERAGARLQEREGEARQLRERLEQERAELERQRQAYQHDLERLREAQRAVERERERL

B1: myc-tagged, constitutively active Gα12 (GTPase-deficient Q229L mutant) (protein, UniProt P27600 1-379)
chain: MSGVVRTLSRCLLPAEAGARERRAGAARDAEREARRRSRDIDALLARERRAVRRLVKILLLGAGESGKSTFLKQMRIIHGREFDQKALLEFRDTIFDNILKGSRVLVDARDKLGIPWQHSENEKHGMFLMAFENKAGLPVEPATFQLYVPALSALWRDSGIREAFSRRSEFQLGESVKYFLDNLDRIGQLNYFPSKQDILLARKATKGIVEHDFVIKKIPFKMVDVGGLRSQRQKWFQCFDGITSILFMVSSSEYDQVLMEDRRTNRLVESMNIFETIVNNKLFFNVSIILFLNKMDLLVEKVKSVSIKKHFPDFKGDPHRLEDVQRYLVQCFDRKRRNRSKPLFHHFTTAIDTENIRFVFHAVKDTILQENLKDIMLQ
Consider B1, for which the binding entry in test [1] is “binds”; in test [2], “no binding”; in test [3], “no binding”.
